# In the supplement of paper PMC6289059:
# Some of the results follow. Repeats are few or missing, and single values can be far off.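 Hepatocyte-like cells derived from human stem cells with CRISPR-disrupted DGUOK model liver mtDNA depletion syndrome. Each well's ATP signal was scored against other wells on the same plate, and drugs scoring 3 or above were primary hits.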
# Tested on: DGUOK Δ14/Δ5 iPSC-derived hepatocyte-like cells (SV20)
# Assay: ATP level (CellTiter-Glo luminescence) Z score relative to plate distribution, under 2-DG glycolysis block; higher = more cellular ATP (rescue of mitochondrial ATP production)
# Conditions: 5 µM; treatment time: day 15 to day 20 of differentiation (5 days); 2-deoxy-D-glucose: 20 mM for 24 h before assay
row,Compound,ATP level
1,O=C1C(=O)c2ccccc2C(O)=C1C1CCC(c2ccc(Cl)cc2)CC1 (stereo unspecified),inactive: 0.225
2,O=c1[nH]cnc2c1ncn2[C@@H]1O[C@H](CO)[C@@H](O)[C@H]1O,inactive: -0.333
3,CC(C)Cn1c(=O)n(C)c(=O)c2[nH]cnc21,inactive: 0.777
4,COc1cc([C@@H]2c3cc4c(cc3[C@@H](O[C@@H]3O[C@@H]5CO[C@@H](c6cccs6)O[C@H]5[C@H](O)[C@H]3O)[C@H]3COC(=O)[C@H]23)OCO4)cc(OC)c1O,active: 3.17
5,C/C(=C\CO)CC[C@H](C)CCC[C@H](C)CCCC(C)C,inactive: -1.06
6,NCCOB(c1ccccc1)c1ccccc1,inactive: -0.952
7,CC1(C)C=Cc2cc3ccc(=O)oc3cc2O1,inactive: 0.264
8,O=c1ccc2ccccc2o1,inactive: -6.23
9,CCOC(=O)c1c(C)cc(O)cc1O,inactive: 1.1
10,CN(C)CCCN1c2ccccc2Sc2ccc(Cl)cc21,inactive: -11.6
11,COc1ccc(C(=O)c2ccccc2O)c(O)c1,inactive: 0.096
12,CC(C)(C)NC[C@H](O)COc1ccccc1C1CCCC1,inactive: -0.525
13,Nc1nc2[nH]cc(CCc3ccc(C(=O)N[C@@H](CCC(=O)O)C(=O)O)cc3)c2c(=O)[nH]1,inactive: 0.529
14,COCCc1ccc(OCC(O)CNC(C)C)cc1 (stereo unspecified),inactive: 1.21
15,OCc1ccccn1,inactive: 0.367
16,CC(C)Cc1ccc(C(C)C(=O)O)cc1 (stereo unspecified),inactive: 0.147
17,COc1ccc(CN2CCN(C(c3ccc(F)cc3)c3ccc(F)cc3)CC2)c(OC)c1OC,inactive: -2.51
18,COc1cc(OC)c2c(=O)c(-c3ccccc3)c(C)oc2c1OC,inactive: 0.614
19,Cc1cnc(C(=O)O)c[n+]1[O-],inactive: 1.46
20,CC(=O)Nc1cccc(O)c1,inactive: 0.54
21,O=c1c(O)c(-c2ccc(O)c(O)c2)oc2cc(O)cc(O)c12,inactive: 1.35
22,O=C(O)C1(C(=O)O)CCC1.[NH2-].[NH2-].[Pt+2],inactive: 2.48
23,O=C(O)[C@H]1/C(=C/CO)O[C@@H]2CC(=O)N21,inactive: -0.145
24,CC1=C(C/C=C(\C)CCC[C@H](C)CCC[C@H](C)CCCC(C)C)C(=O)c2ccccc2C1=O,inactive: -0.0998
25,CC1CCCC(C)N1 (stereo unspecified),inactive: -1.74
26,Cc1ncc(COP(=O)([O-])[O-])c(CN(CCN(CC(=O)O)Cc2c(COP(=O)([O-])O)cnc(C)c2O)CC(=O)O)c1O.[Mn].[Na+].[Na+].[Na+],inactive: -2.63

row,Compound,ATP level
1,COc1cc(OC)c(-c2c(OC)cc(OC)cc2OC)c(OC)c1,inactive: -0.618
2,CC(C)(C)NCC(O)c1cc(O)cc(O)c1 (stereo unspecified),inactive: 1.21
3,COc1ccc2c(c1)O[C@@H]1COc3cc(OC)c(OC)cc3[C@@H]1C2=O,inactive: -5.39
4,CC[N+](CC)(CC)CCOc1cccc(OCC[N+](CC)(CC)CC)c1OCC[N+](CC)(CC)CC,inactive: 1.6
5,CCOC(=O)[N-]c1c[n+](N2CCOCC2)no1,inactive: 1.43
6,NCc1ccc(S(N)(=O)=O)cc1,inactive: -0.945
7,CN[C@@H]1[C@H](O[C@H]2[C@H](O[C@H]3[C@H](O)[C@@H](O)[C@H](NC(=N)N)[C@@H](O)[C@@H]3NC(=N)N)O[C@@H](C)[C@]2(O)CO)O[C@@H](CO)[C@H](O)[C@H]1O,inactive: 2.62
8,COc1cc2oc3cc(OC)c(OC)c(CC=C(C)C)c3c(=O)c2c(OC)c1CC=C(C)C,inactive: -1.64
9,CC/C(=C(\c1ccccc1)c1ccc(OCCN(C)C)cc1)c1ccccc1,inactive: -12.8
10,CCc1oc2ccccc2c1C(=O)c1cc(Br)c(O)c(Br)c1,inactive: 1.31
11,CC(=O)Nc1ccc(C(=O)O)cc1,inactive: -0.516
12,O=C(O)c1cccnc1C(=O)O,inactive: -0.802
13,CC(C)(C)CC(=O)OCC(=O)[C@@]1(O)CC[C@H]2[C@@H]3CCC4=CC(=O)C=C[C@]4(C)[C@H]3[C@@H](O)C[C@@]21C,inactive: 1.69
14,O=C(O)c1ccccc1,inactive: 0.704
15,CCOc1ccc(NC(C)=O)cc1,inactive: 0.939
16,CN1CCC[C@@H]1CCO[C@](C)(c1ccccc1)c1ccc(Cl)cc1,inactive: -13.2
17,CC(=O)O[C@H]1CC[C@]2(C)[C@H]3C(=O)C=C4[C@@H]5C[C@@](C)(C(=O)O)CC[C@]5(C)CC[C@@]4(C)[C@]3(C)CC[C@H]2C1(C)C,inactive: -1.39
18,CN1CCN(c2c(F)cc3c(=O)c(C(=O)O)cn4c3c2SCC4)CC1,inactive: -6.12
19,CC(C)=CCc1c2c(c3occ(-c4ccc(O)cc4)c(=O)c3c1O)C=CC(C)(C)O2,inactive: 0.506
20,C/C=C(/C)C(=O)O[C@H]1[C@H](OC(C)=O)[C@@]2(CO)C(CC1(C)C)C1=CCC3[C@@]4(C)CCC(O[C@@H]5O[C@H](C(=O)O)[C@@H](O[C@@H]6O[C@H](CO)[C@@H](O)[C@H](O)[C@H]6O)[C@H](O)[C@H]5O[C@@H]5O[C@H](CO)[C@@H](O)[C@H](O)[C@H]5O)[C@](C)(CO)C4CC[C@@]3(C)[C@]1(C)C[C@H]2O.C/C=C(\C)C(=O)O[C@H]1[C@H](OC(C)=O)[C@@]2(CO)C(CC1(C)C)C1=CCC3[C@@]4(C)CCC(O[C@@H]5O[C@H](C(=O)O)[C@@H](O[C@@H]6O[C@H](CO)[C@@H](O)[C@H](O)[C@H]6O)[C@H](O)[C@H]5O[C@@H]5O[C@H](CO)[C@@H](O)[C@H](O)[C@H]5O)[C@](C)(CO)C4CC[C@@]3(C)[C@]1(C)C[C@H]2O (stereo partly specified),inactive: -0.823
21,COC(=O)C1=C(C)NC(C)=C(C(=O)OCC(C)C)C1c1ccccc1[N+](=O)[O-] (stereo unspecified),inactive: -0.87
22,O=C1CCc2ccc(OCCCCN3CCN(c4cccc(Cl)c4Cl)CC3)cc2N1,inactive: -3.98
23,CN(C)CCOC(c1ccc(Cl)cc1)c1ccccn1 (stereo unspecified),inactive: -0.302
24,NC(=O)NC1NC(=O)NC1=O (stereo unspecified),inactive: 0.841
25,C[C@@H]1CC[C@@]23CCC4(C)[C@@](C=CC5[C@@]6(C)CCC(=O)C(C)(C)C6CC[C@]54C)(OC2=O)C3[C@H]1C (stereo partly specified),active: 8.17

# Two records picked at random from those above:
row,Compound,ATP level
3,CC(C)Cn1c(=O)n(C)c(=O)c2[nH]cnc21,inactive: 0.777
4,CC[N+](CC)(CC)CCOc1cccc(OCC[N+](CC)(CC)CC)c1OCC[N+](CC)(CC)CC,inactive: 1.6
